Reference: patent US9175030B2, “Derivatives of avicin D and methods of making and using thereof” (priority 2012, dated 2015)
At least one compound was matched to its structure with a doubt left.

Test system: HMLE cells expressing TWIST
Test: Mammosphere formation, cancer stem cell model
Assay type: cell-based, human
Details: 60 nM, added day 7 and every 7th day, seen on day 21
Description: Human mammary epithelial cells were transfected with transcription factor TWIST acquiring mesenchymal stem cell-like traits, including the ability to form mammospheres. See Cano et al., 2000; Yang et al., Cell, 2004; Mani et al., 2008, which are all incorporated herein by reference.
HMLE cells expressing TWIST were plated at 100 cells/0.1 ml in 96-well plates. The cells were cultured in MEGM media supplemented with 20 ng/mL bFGF, 10 ng/mL EGF, 4 ug/mL heparin, and 1% methyl cellulose. Formation of spheres could be seen around day 7. Avicin D/Compound 8 (60 nM) was first added to the cultures on day 7 and subsequently every 7th day. […] See FIGS. 6A-D, which show mammospheres treated with 60 nM of Avicin D or Compound 8 for fourteen days. The ability of these agents to induce cell kill in both the tumor cell population as well as the stem-like cells enhances their potential for use as a cancer therapy.

## C=CC(C)(O)CCC1OCC1C(=O)O[C@@H]1C(C)O[C@@H](O[C@](C)(C=C)CC/C=C(\CO)C(=O)O[C@H]2C[C@@]3(C(=O)O[C@@H]4OC(CO)[C@@H](O)C(O)C4O[C@@H]4OC(C)[C@H](O[C@@H]5O[C@@H](CO)[C@H](O)[C@@H]5O)C(O[C@@H]5OC(CO)[C@@H](O)C(O)C5O)C4O)C(CC2(C)C)C2=CCC4[C@@]5(C)CC[C@H](O[C@@H]6OC(CO[C@@H]7OC(C)[C@H](O)C(O)C7O[C@@H]7OC[C@@H](O)C(O)C7O)[C@@H](O)C(O)C6NC(C)=O)C(C)(C)C5CC[C@@]4(C)[C@]2(C)C[C@H]3O)C(O)C1O (stereo partly shown) [Compound 8]
  development of mammospheres as measured by the size of the spheres: appear to inhibit the development of these spheres
